Results of single-concentration screens

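Phenotypic screen: M. tuberculosis growth, glucose 7H9 medium, 3 days; the read-out is not stated. Tested at 50 µM. The record gives no direction; compounds that gave an IC50 in retests scored well above the rest, so higher reads as more growth inhibition. Size under these conditions: about 69,000 compounds, about 760 of them at 50% or above in at least one test.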

Results are given as percent effect. The record does not define 0% and 100%; most values in the screen are far below 50% and negative numbers occur (in some assays of this library far below -100). The compounds are a random part of those screened. Two or more numbers in one place are separate tests of the same structure; such repeats can differ widely.

| # | compound | Percent Effect |
|---|---|---|
| 1 | `COc1cccc2c3c(c(=O)[nH]c12)CCC(C)(C)O3` | 14.19% & 24.99% |
| 2 | `c1ccc(-c2noc(CCCN3CCCC3Cn3cccn3)n2)cc1` (stereo not given) | 13.6% |
| 3 | `CN1CCCC1c1cccc(Cc2ccc(F)cc2)n1` (stereo not given) | 24.23% |
| 4 | `Cn1cc(CN2CCc3ncnc(C4CCOC4)c3CC2)cn1` (stereo not given) | 5.186% & -3.163% |
| 5 | `O=C1CCC(C(=O)NCc2nn(-c3ccccc3)c3c2CCC3)CN1` (stereo not given) | -35.61% |
| 6 | `CN1C(=O)CC(C(=O)O)C12CCN(Cc1ccc(F)cc1Cl)CC2` (stereo not given) | 20.88% |
| 7 | `COCCn1cc(C(=O)N2CCCC2c2cccc(F)c2)ccc1=O` (stereo not given) | 13.65% |
| 8 | `Cc1cnn(CCNCc2csc(COc3ccccc3)n2)c1` | 0.1299% & 27.88% |
| 9 | `Cc1nn(C)c(Cl)c1S(=O)(=O)N(C)c1ccc(Cl)cn1` | 17.42% |
| 10 | `Cc1cnc(NC(=O)N2CCCCCC2)s1` | -0.8356% |
| 11 | `CC(C)N1Cc2c(C(=O)N3CCN(C)CC3)nn(C)c2C1` | -1.256% |
| 12 | `CCC(=O)Nc1cccc(C(=O)NCCC2=CSC3=NCCCN23)c1` | -8.788% & -6.387% |
| 13 | `NC(=O)c1cccc(CCNCc2cnc(C3CCC3)s2)c1` | -7.575% |
| 14 | `NC(=O)c1nc(COc2ccc3c(c2)OCO3)no1` | 0.4735% |
| 15 | `Cc1ncc2c(n1)CN(CC1CCCCO1)CC2` (stereo not given) | 4.017% |
| 16 | `CC(C)[C@@H]1CN(Cc2cnc(C3CCCCC3)nc2)C[C@H]1C(=O)O` | -7.933% |
| 17 | `Fc1ccc(C2(CNC3=NCCCN3)CCC2)cc1.I` | 5.629% |
| 18 | `COCCNC(=O)Nc1ccc(CN2CCOC2=O)cc1` | -3.535% |
| 19 | `Cc1ccc(F)cc1S(=O)(=O)Nc1cnc(N2CCCC2)nc1` | 15.9% |
| 20 | `CN(Cc1ccoc1)C(=O)C1CC(=O)N(Cc2ccncc2)C1` (stereo not given) | 1.104% & -5.962% |
| 21 | `Cc1cc(C(=O)NCc2csc(N(C)C)n2)c2ccc(C)c(C)c2n1` | 86.54% |
| 22 | `OC1(CN2CCCCC2)CCN(c2ccc(C(F)(F)F)cn2)C1` (stereo not given) | -2.967% & -13.08% |
| 23 | `CNc1ncccc1CN1CCN2CCN(C)CC2C1` (stereo not given) | 10.62% |
| 24 | `[H][C@]12CC[C@](O)(c3ccc(C)cc3)[C@@]1([H])CN(S(=O)(=O)CC)C2` | 2.283% |
| 25 | `COc1ccc(C(C)=O)cc1CN1CCn2cccc2C1C` (stereo not given) | 19.53% |
| 26 | `CCOCC1CCN(C(=O)Nc2ccc(-c3csnn3)cc2)C1` (stereo not given) | 0.8222% |
| 27 | `O=C(O)C(F)(F)F.O=C(O)C(F)(F)F.[H][C@@]12COC[C@@H](C(=O)N3CCCCO3)[C@]1([H])CN(Cc1cnn(C)c1)C2` | 8.452% |
| 28 | `Cc1cc2nc(SCC(=O)N3CCOCC3)n(CCC(C)C)c(=O)c2[nH]1` | -27.05% |
| 29 | `Cc1ccsc1C(=O)N1CC[C@@H](N(C)C)[C@@H]1Cc1cnn(C)c1.O=C(O)C(F)(F)F` | -18.66% |
| 30 | `CCOCCNS(=O)(=O)c1cc(C)c2nc(O)cc(C)c2c1` | -35.14% |
| 31 | `Cc1cnn(CCNCC(=O)NCCOc2ccc(F)cc2)c1` | 15.09% |
| 32 | `CN1CCN(C2CCN(Cc3ccc(Cl)cc3)CC2)C1=O` | -1.521% & 13.4% |
| 33 | `COCCN1CCCC(C)(c2cc(O)[nH]n2)C1` (stereo not given) | 13.77% |
| 34 | `Cc1ccc(=O)n(CC2(O)CCN(Cc3cc(C)c(O)c(C)c3)CC2)n1.O=C(O)CC(O)(CC(=O)O)C(=O)O` | -4.651% |
| 35 | `CN1CCCN(C(=O)c2nc3c(s2)CCCN3CC2CC2)CC1` | -8.073% & -5.682% |
| 36 | `Cc1cccc(C(C)(C)NC(=O)CCS(C)(=O)=O)c1` | 5.769% |
| 37 | `O=C(NCc1ccc2c(c1)CCCO2)c1ccc(C2CCNC2)cc1` (stereo not given) | 21.69% |
| 38 | `Cc1c(C(=O)N[C@@H]2CC[C@@H](N3CCCC3)[C@@H]2O)[nH]c2ccc(F)cc12` | 27.27% |
| 39 | `COCc1cc(CN(C)C(=O)CCC(=O)Nc2cc(C)ccc2F)n[nH]1` | 23.34% & -9.139% |
| 40 | `CCCN1CCC(CC(=O)NCc2cc(O)ncn2)CC1` | 6.849% & 1.971% |
| 41 | `Cc1cc(C)nc(N2CCCC(c3cccc(-n4ccnc4)n3)C2)n1` (stereo not given) | 54.58% |
| 42 | `CN(C)C(=O)CN1CCCCC1c1nc(N)ncc1-c1ccccc1` (stereo not given) | 0.06302% |
| 43 | `CN(C)C(=O)CN1CCCC(Cc2ccc(N3CCCC3)nn2)C1` (stereo not given) | 7.232% |
| 44 | `NC(=O)NC(=O)CCN1CCC(C(=O)c2cc(F)ccc2F)CC1` | 1.068% |
| 45 | `O=C(c1cnn2cccnc12)N1CCCC(n2ccnc2)C1` (stereo not given) | -2.868% |
| 46 | `CC(=O)N1CCC(Oc2ccc(Cl)cn2)CC1` | 7.324% & 26.61% |
| 47 | `Cc1ccc(N2CCC3(CCN(C(=O)c4ccnnc4)CC3)CC2)nn1.O=C(O)C(F)(F)F` | 10.29% |
| 48 | `CCn1nc(C)c2ncnc(NCCCn3ccnc3)c21` | 11.42% |
| 49 | `O=C(O)C(F)(F)F.[H][C@@]12CCN(c3cccnc3)C[C@]1([H])CN(C(=O)C1CCC1)C2` | -33.79% |
| 50 | `CNc1nc2c(s1)C(c1c(Cl)cccc1Cl)CC(=O)N2` (stereo not given) | 17.97% & 9.29% |
| 51 | `COc1ccc(C)cc1C(C)NCc1cccn1C` (stereo not given) | 28.63% |
| 52 | `COc1ccc(CN2CCOC[C@H](OCC(=O)N(C)C)C2)cc1` | -0.297% & -10.84% |
| 53 | `Cc1cc(C)cc(OCC(=O)NC2CCN(S(C)(=O)=O)CC2)c1` | -11.9% |
| 54 | `O=S(=O)(NCCNc1cc(-n2cccc2)ncn1)c1cccs1` | 38.3% & 19.77% |
| 55 | `c1cc(-c2n[nH]c(CNc3nnc(C4CC4)o3)n2)ccn1` | 8.21% |

For reference, 6 entries once more:

compound,Percent Effect
NC(=O)NC(=O)CCN1CCC(C(=O)c2cc(F)ccc2F)CC1,1.068%
CN1CCCN(C(=O)c2nc3c(s2)CCCN3CC2CC2)CC1,-8.073% & -5.682%
O=C(O)C(F)(F)F.[H][C@@]12CCN(c3cccnc3)C[C@]1([H])CN(C(=O)C1CCC1)C2,-33.79%
NC(=O)c1nc(COc2ccc3c(c2)OCO3)no1,0.4735%
CN(C)C(=O)CN1CCCCC1c1nc(N)ncc1-c1ccccc1 (stereo not given),0.06302%
CCOCCNS(=O)(=O)c1cc(C)c2nc(O)cc(C)c2c1,-35.14%

Measurements from “University of Dundee, Small-Polar-MMV Screening Library” (2021), ChEMBL document CHEMBL3988442.